According to PMC11962092:
No constants are given. Whether binding was seen depends on the method and setting. Binding seen in cells or lysates may run through a third protein. Some binding calls cover weakened binding; strength is not graded here. Tags and fused reporters may be left off the sequences shown.

The chains behind the UniProt entries cited, without tags or fusion partners.
UniProt P51793: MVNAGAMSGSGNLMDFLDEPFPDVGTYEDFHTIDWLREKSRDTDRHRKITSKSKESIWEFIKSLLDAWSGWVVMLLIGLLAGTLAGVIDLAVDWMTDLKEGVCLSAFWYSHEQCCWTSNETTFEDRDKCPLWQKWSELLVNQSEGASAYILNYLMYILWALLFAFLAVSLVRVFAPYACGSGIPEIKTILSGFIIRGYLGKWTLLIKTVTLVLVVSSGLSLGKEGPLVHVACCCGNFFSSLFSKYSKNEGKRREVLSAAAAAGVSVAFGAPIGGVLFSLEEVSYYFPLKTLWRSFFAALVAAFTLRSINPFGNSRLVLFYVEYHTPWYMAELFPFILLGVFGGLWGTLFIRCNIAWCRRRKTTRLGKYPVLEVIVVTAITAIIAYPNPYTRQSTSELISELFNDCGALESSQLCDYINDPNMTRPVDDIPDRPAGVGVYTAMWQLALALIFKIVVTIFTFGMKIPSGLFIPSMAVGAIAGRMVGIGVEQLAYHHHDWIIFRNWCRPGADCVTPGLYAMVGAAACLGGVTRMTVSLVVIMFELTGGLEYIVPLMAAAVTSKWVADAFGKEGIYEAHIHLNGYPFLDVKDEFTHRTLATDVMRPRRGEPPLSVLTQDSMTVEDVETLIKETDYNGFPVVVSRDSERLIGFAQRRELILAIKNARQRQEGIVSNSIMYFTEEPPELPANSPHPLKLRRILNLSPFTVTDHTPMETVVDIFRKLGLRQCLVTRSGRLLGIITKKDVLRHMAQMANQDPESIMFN

T1: C-terminally HA-tagged T9A (mouse) (UniProt Q9CR23)
T1 sequence: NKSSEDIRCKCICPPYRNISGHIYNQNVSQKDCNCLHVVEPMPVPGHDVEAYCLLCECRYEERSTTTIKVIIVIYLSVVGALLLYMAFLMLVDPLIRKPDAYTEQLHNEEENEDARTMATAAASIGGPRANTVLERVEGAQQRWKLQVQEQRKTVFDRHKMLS

B1: Venus-ClC-7 (protein, UniProt P51798 1-805)
chain: MANVSKKVSWSGRDRDDEEAAPLLRRTARPGGGTPLLNGAGPGAARQSPRSALFRVGHMSSVELDDELLDPDMDPPHPFPKEIPHNEKLLSLKYESLDYDNSENQLFLEEERRINHTAFRTVEIKRWVICALIGILTGLVACFIDIVVENLAGLKYRVIKGNIDKFTEKGGLSFSLLLWATLNAAFVLVGSVIVAFIEPVAAGSGIPQIKCFLNGVKIPHVVRLKTLVIKVSGVILSVVGGLAVGKEGPMIHSGSVIAAGISQGRSTSLKRDFKIFEYFRRDTEKRDFVSAGAAAGVSAAFGAPVGGVLFSLEEGASFWNQFLTWRIFFASMISTFTLNFVLSIYHGNMWDLSSPGLINFGRFDSEKMAYTIHEIPVFIAMGVVGGVLGAVFNALNYWLTMFRIRYIHRPCLQVIEAVLVAAVTATVAFVLIYSSRDCQPLQGGSMSYPLQLFCADGEYNSMAAAFFNTPEKSVVSLFHDPPGSYNPLTLGLFTLVYFFLACWTYGLTVSAGVFIPSLLIGAAWGRLFGISLSYLTGAAIWADPGKYALMGAAAQLGGIVRMTLSLTVIMMEATSNVTYGFPIMLVLMTAKIVGDVFIEGLYDMHIQLQSVPFLHWEAPVTSHSLTAREVMSTPVTCLRRREKVGVIVDVLSDTASNHNGFPVVEHADDTQPARLQGLILRSQLIVLLKHKVFVERSNLGLVQRRLRLKDFRDAYPRFPPIQSIHVSQDERECTMDLSEFMNPSPYTVPQEASLPRVFKLFRALGLRHLVVVDNRNQVVGLVTRKDLARYRLGKRGLEELSLAQT
B2: Venus-ClC-5 (protein, UniProt P51795 1-816)
chain: MAMWQGAMDNRGFQQGSFSSFQNSSSDEDLMDIPATAMDFSMRDDVPPLDREVGEDKSYNGGGIGSSNRIMDFLEEPIPGVGTYDDFNTIDWVREKSRDRDRHREITNKSKESTWALIHSVSDAFSGWLLMLLIGLLSGSLAGLIDISAHWMTDLKEGICTGGFWFNHEHCCWNSEHVTFEERDKCPEWNSWSQLIISTDEGAFAYIVNYFMYVLWALLFAFLAVSLVKVFAPYACGSGIPEIKTILSGFIIRGYLGKWTLVIKTITLVLAVSSGLSLGKEGPLVHVACCCGNILCHCFNKYRKNEAKRREVLSAAAAAGVSVAFGAPIGGVLFSLEEVSYYFPLKTLWRSFFAALVAAFTLRSINPFGNSRLVLFYVEFHTPWHLFELVPFILLGIFGGLWGALFIRTNIAWCRKRKTTQLGKYPVIEVLVVTAITAILAFPNEYTRMSTSELISELFNDCGLLDSSKLCDYENRFNTSKGGELPDRPAGVGVYSAMWQLALTLILKIVITIFTFGMKIPSGLFIPSMAVGAIAGRLLGVGMEQLAYYHQEWTVFNSWCSQGADCITPGLYAMVGAAACLGGVTRMTVSLVVIMFELTGGLEYIVPLMAAAMTSKWVADALGREGIYDAHIRLNGYPFLEAKEEFAHKTLAMDVMKPRRNDPLLTVLTQDSMTVEDVETIISETTYSGFPVVVSRESQRLVGFVLRRDLIISIENARKKQDGVVSTSIIYFTEHSPPLPPYTPPTLKLRNILDLSPFTVTDLTPMEIVVDIFRKLGLRQCLVTHNGRLLGIITKKDVLKHIAQMANQDPDSILFN

Target: T1, C-terminally HA-tagged T9A (mouse)
Assay: co-IP; HeLa cells co-transfected with T9A-HA and Venus-CLCs, lysed in HBS with 1% DDM; anti-HA magnetic beads overnight; blots for GFP and HA

| binding | Molecule |
| --- | --- |
| binds | Venus-ClC-4 (from UniProt P51793 1-760) |
| no binding | B1 |
| binds | B2 |
